Where a chain is given by its changes, count along the chain named. No constants are given. Whether binding was seen depends on the method and setting. Some binding calls cover weakened binding; strength is not graded here. One block for each binder: values may come before it.
Assays:
[1] = target: His-tagged cynomolgus VISTA extracellular domain protein (in house) (cynomolgus); test: ELISA, hybridoma supernatant on coated cynomolgus VISTA (2 µg/mL)
[2] = target: T1, Human VISTA recombinant protein (Sino Biological Inc., Cat. #13482-H08H), biotinylated (human) (UniProt Q9H7M9); test: BLI (Octet QKe) epitope binning, biotinylated human VISTA on streptavidin tips, antibodies at 10 µg/ml
T1 sequence (chain, biotinylated with EZ-LINK NHS-PEG4 biotin): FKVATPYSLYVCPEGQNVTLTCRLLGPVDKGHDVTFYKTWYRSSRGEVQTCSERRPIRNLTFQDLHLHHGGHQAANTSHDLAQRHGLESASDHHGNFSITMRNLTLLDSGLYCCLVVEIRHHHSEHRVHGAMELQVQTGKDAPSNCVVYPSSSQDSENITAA

binding [1]: binds
binding [2]: binds
B1: anti-VISTA antibody 15D11 (antibody, V domains shown)
VH: EVQLQQSGSELVKAGASVKLSCTASGFKIKDTFIHWVKQRPEQGLDWIGRIDPANGNSKYDPKFQGKATITADTSSNTAYLQLSSLTSEDTAVYYCARWPSNWEAMDYWGQGTSVTVSS
VL: QIVLTQSPAIMSASPGEKVTMTCSASSSVSYMYWYQQKPGSSPRLLIYDTSNLASGVPFRFSGSGSGTSYSLTISRMEAEDAATYYCQQWISYPLTFGTGTKLELK

binding [1]: binds
binding [2]: binds
B2: anti-VISTA antibody 9F9 (antibody, V domains shown)
VH: QVQFQQSGAELARPGASVKLSCKASGYTFTGYWMQWVKQRPGQGLEWIGAIYPGDGDTRYSQKFKGKVTLTADKSSSTAYMQLSSLASEDSAVYYCARRDYGAWFAYWGQGTLVTVSA
VL: DIKVTQSPSSMYASLGERVTITCKASQDINSYLSWFQQKPGKSPKTLIYRANRLVDGVPSRFSGSGSGQDYSLTISSLDYEDMGIYYCLQYDEFPYTFGGGTKLEIK

binding [1]: binds
B3: anti-VISTA antibody 16A1 (antibody, IgG1, V domains shown)
VH: QVQLQQSGAELMKPGASVKISCKATGYTFSSSWIEWVKQRPGHGLEWIGEIFPGSGSLNFNEKFKGKATFTADTSSNTAYLQLSSLTSDDSAVYYCARRPPGWFFDVWGAGTTVTVSS
VL: DIVMTQSHKFMSTSVGDRVSITCKASQDVTTDVAWYQQKPGQSPKLLIYSASYRYTGVPDRFTGSGSGTDFTFTISSVQAEDLTVYYCQQHYSSPWTFGGGTKLEIK

binding [1]: binds
B4: anti-VISTA antibody 20E4 (antibody, IgG1, V domains shown)
VH: B3 VH with I34V, K38R, L58T, N59H, F60Y
VL: B3 VL with T30S, T84A, S94T

binding [1]: binds
B5: anti-VISTA antibody 17E9 (antibody, IgG1, V domains shown)
VH: QVQLQQSGAELMKPGASVKISCTATGYTFSSCWIEWVKQRPGHGLEWLGEILPGSDYTNYNEKFKDKATFTADTSSDTAYMQLSSLTSEDSAVYYCARRPPGWYFDVWGAGTAVTVSS
VL: B3 VL with T30S, V33I, Y55F, T84A, Q90H, H91Q, S94T, E105D

From patent publication US20240141048A1
